Results published in article PMC12040169 (PLOS Biology, 2025).
Some of the results follow.

system: T1, CTL2-GFP (C. trachomatis L2/434/Bu, GFP-expressing); parameters: species or system HeLa; Intracellular C. trachomatis growth in HeLa cells, bulk GFP fluorescence relative to DMSO; conditions: 28.5 h, 10 µM; inhibitor
T1 construct: L2/434/Bu, GFP-expressing

Row | SMILES | % of control remaining
1 | CN(C(=O)c1ccc(Cl)c(Cl)c1)[C@H]1CCC[C@H]1N1CCCC1 [CBK003411C] | 11.667%
2 | CC(=O)Nc1ccc(OC(=O)N2CCCCC2)cc1 [CBK090124] | 122.256%
3 | Cc1ccc(Cl)c(OC(=O)NCCOC(=O)NO)c1 [CBK288417] | 100.01%
4 | CNC(=O)Oc1cccc2cccnc12 [CBK015609] | 128.212%
5 | CC[C@H](N)Cn1nc(-c2cccs2)oc1=O [CBK282393] | 147.149%
6 | Cc1cc(/C=C2\C(=O)NC(=O)N(c3ccccc3F)C2=O)c(C)n1-c1cc(C(=O)O)cc(C(=O)O)c1 [CBK264028] | 100%
7 | CC(C)NC(=O)Cn1cc(C(=O)COc2ccccc2)c2ccccc21 [CBK268317] | 141.612%
8 | CC1=CC(C)C(COC(N)=O)(COC(N)=O)C(C)C1 (centres unmarked) [CBK020974] | 94.8938%
9 | O=C(O)COc1ccc(/C=C2\C(=O)NC(=O)N(c3ccc(OCc4ccccc4)cc3)C2=O)cc1 [CBK265449] | 100%
10 | CN(C)C(=O)c1ccc(Cn2nc(C(=O)NC3CC3)c3ccccc32)cc1 [CBK047720] | 100%
11 | C=CCc1cc(/C=C2\C(=O)NC(=O)N(c3ccc4c(c3)OCO4)C2=O)cc(OC)c1OCC(=O)O [CBK264025] | 100%
12 | O=C1CCCc2c1c1cccc(C(=O)O)c1n2Cc1ccccc1 [CBK002365] | 82.8471%
13 | O=C(O)c1cc(N2C(=O)c3cccc4c([N+](=O)[O-])ccc(c34)C2=O)cc(N2C(=O)c3cccc4c([N+](=O)[O-])ccc(c34)C2=O)c1 [CBK262119] | 107.776%
14 | O=C(COc1ccc(/C=C2\C(=O)NC(=O)N(c3ccc(O)cc3)C2=O)cc1Cl)Nc1ccccc1 [CBK265425] | 100%
15 | O=C(Nc1ccc(NC(=O)c2cccc([N+](=O)[O-])c2)c(Cl)c1)c1cccc([N+](=O)[O-])c1 [CBK261196] | 101.215%
16 | O=C1NC(=O)N(Cc2ccccc2)C(=O)/C1=N\Nc1ccc([N+](=O)[O-])cc1 [CBK261123] | 100%
17 | CN(C)C(=O)Oc1cc(CN2CCCC2)c2ccn(S(=O)(=O)c3ccccc3)c2c1 [CBK137151T] | 102.547%
18 | CC1(C)CC(=O)C(C2(O)C(=O)Nc3ccc(Br)cc32)CO1 (centres unmarked) [CBK263410] | 100%
19 | O=P(O)(O)CCCc1ccccc1 [CBK012021] | 126.738%
20 | Nc1nonc1OCC(COc1nonc1N)(COc1nonc1N)COc1nonc1N [CBK011044] | 124.681%
21 | O=C(N[C@H]1CCN2C(=O)N(CCCl)C(=O)[C@@H]2C1)c1cccs1 [CBK289542] | 107.541%
22 | COc1ccc(OC(=O)Nc2nn(Cc3ccc(C#N)cc3)c3ccc(C)cc23)cc1 [CBK048654] | 137.588%
23 | CC(=O)c1c(C)[nH]c(C(=O)N2CCC(C#N)(c3ccccc3)CC2)c1C [CBK091404] | 100%
24 | Cc1ccc(Cn2nc(C(=O)NCC3COc4ccccc4O3)c3ccccc32)cc1 (centres unmarked) [CBK047831] | 102.361%

Three structures already listed, ordered by formula weight, low to high:
Row | SMILES | % of control remaining
8 | CC1=CC(C)C(COC(N)=O)(COC(N)=O)C(C)C1 (centres unmarked) [CBK020974] | 94.8938%
12 | O=C1CCCc2c1c1cccc(C(=O)O)c1n2Cc1ccccc1 [CBK002365] | 82.8471%
15 | O=C(Nc1ccc(NC(=O)c2cccc([N+](=O)[O-])c2)c(Cl)c1)c1cccc([N+](=O)[O-])c1 [CBK261196] | 101.215%

Following part.

Row | SMILES | % of control remaining
25 | CC(C)CN(/C=N/c1nc(OC(=O)N(c2ccccc2)c2ccccc2)nc2c1ncn2C1CC(O)C(CO)O1)CC(C)C (centres unmarked) [CBK201170] | 147.891%
26 | O=C(Nc1ccc2c(c1)OC(F)(F)O2)c1nn(Cc2ccc(-c3csnn3)cc2)c2ccccc12 [CBK047877] | 75.0807%
27 | O=C(/C=C/c1ccc(N2N=N2)cc1)/C=C/c1ccc(N2N=N2)cc1 [CBK261638] | 111.114%
28 | Cc1ccc(Cn2nc(NC(=O)Oc3ccccc3)c3ccccc32)cc1 [CBK048407] | 161.629%
29 | COc1cc(/C=C2\C(=O)NC(=O)N(c3ccc([N+](=O)[O-])cc3)C2=O)cc(Cl)c1OCC(=O)O [CBK265431] | 100%
30 | CC(C)C(Nc1c([N+](=O)[O-])cc(C(F)(F)F)cc1[N+](=O)[O-])C(=O)O (centres unmarked) [CBK261041] | 104.681%
31 | Cc1nnsc1C(=O)N[C@H]1CCN2C(=O)N(CCCl)C(=O)[C@@H]2C1 [CBK289550] | 150.238%
32 | O=C(Nc1ccc(OC(=O)N2CCCCC2)cc1)N1CCCCC1 [CBK090060] | 109.564%
33 | Cc1c([N+](=O)[O-])c([N+](=O)[O-])nn1CC(=O)NCc1cccnc1 [CBK262428] | 100%
34 | CN(C)C(=O)Oc1ccc2[nH]c3c(c2c1)CCNC31CCN(CCOc2ccccc2)C1 (centres unmarked) [CBK107679] | 128.474%
35 | CCC(=O)N(C[C@H]1CCC[C@@H]1N(C)C)c1ccc(Cl)c(Cl)c1 [CBK003408] | 102.09%
36 | CC1CN(C(=O)COc2ccccc2OC(=O)N(C)C)CC(C)O1 (centres unmarked) [CBK057627] | 100.062%
37 | O=C(O)c1cccc(NC(=O)c2cc([N+](=O)[O-])cc([N+](=O)[O-])c2)c1 [CBK261555] | 100%
38 | CCN(CC)CCN/C=C1/C(=O)NC(=O)N(Cc2ccccc2)C1=O [CBK261624] | 100%
39 | O=C(O)Cn1cc(C(=O)c2cccs2)c2ccccc21 [CBK287110] | 122.268%
40 | S=C(Nc1ccc2nc3c4ccccc4c4ccccc4c3nc2c1)N1CCOCC1 [CBK263153] | 87.3122%
41 | O=C1NC(=S)N(c2ccc(F)cc2)C(=O)/C1=C\NC1CCN(Cc2ccccc2)CC1 [CBK261825] | 100%
42 | O=C(NO)Nc1ccc(Cl)c(Cl)c1 [CBK016929] | 88.1873%
43 | CCOc1cc(C=C2C(=O)NC(=S)NC2=O)cc(Br)c1OCC(=O)O [CBK265411] | 100%
44 | Cc1ccc(OCCn2cc(/C=C3/C(=O)NC(=O)N(Cc4ccco4)C3=O)c3ccccc32)cc1 [CBK263936] | 100%
45 | O=C1C(=CNCCc2c[nH]c3ccccc23)C(=O)N(c2ccccc2)C(=S)N1c1ccccc1 [CBK265557] | 100%
46 | COc1ccc(CCNCc2ccc([N+](=O)[O-])cc2)cc1OC [CBK262217] | 100%
47 | COc1ccc(N2C(=O)NC(=O)/C(=C\c3ccc(O)c(O)c3)C2=O)cc1 [CBK261436] | 100%
